The text below walks through data of PMC9834408, “The SPOC domain is a phosphoserine binding module that bridges transcription machinery with co- and post-transcriptional regulators” (Nature Communications, 2023).

The experiment concerns the target 3×FLAG-NLS-RBM15-SPOC (human) (UniProt Q96T37). The experiment is described as follows: affinity purification with mass spectrometry; anti-FLAG M2 beads; 3×FLAG-NLS-SPOC domains expressed in HEK293T; lysis in 50 mM Tris-Cl pH 8, 150 mM NaCl, 0.1% Triton with benzonase; empty vector as control; three replicates.

These are yes or no findings as the source states them, for the method shown. In cells and extracts the contact can be indirect. A yes stands for co-enrichment or nearness to the bait. Other partners may have been found. Tags and fused reporters may be left off the sequences shown.

B1: HTATSF1 (TAT-SF1) (protein, UniProt O43719 1-755)
chain: MSGTNLDGNDEFDEQLRMQELYGDGKDGDTQTDAGGEPDSLGQQPTDTPYEWDLDKKAWFPKITEDFIATYQANYGFSNDGASSSTANVEDVHARTAEEPPQEKAPEPTDARKKGEKRKAESGWFHVEEDRNTNVYVSGLPPDITVDEFIQLMSKFGIIMRDPQTEEFKVKLYKDNQGNLKGDGLCCYLKRESVELALKLLDEDEIRGYKLHVEVAKFQLKGEYDASKKKKKCKDYKKKLSMQQKQLDWRPERRAGPSRMRHERVVIIKNMFHPMDFEDDPLVLNEIREDLRVECSKFGQIRKLLLFDRHPDGVASVSFRDPEEADYCIQTLDGRWFGGRQITAQAWDGTTDYQVEETSREREERLRGWEAFLNAPEANRGLRRSDSVSASERAGPSRARHFSEHPSTSKMNAQETATGMAFEEPIDEKKFEKTEDGGEFEEGASENNAKESSPEKEAEEGCPEKESEEGCPKRGFEGSCSQKESEEGNPVRGSEEDSPKKESKKKTLKNDCEENGLAKESEDDLNKESEEEVGPTKESEEDDSEKESDEDCSEKQSEDGSEREFEENGLEKDLDEEGSEKELHENVLDKELEENDSENSEFEDDGSEKVLDEEGSEREFDEDSDEKEEEEDTYEKVFDDESDEKEDEEYADEKGLEAADKKAEEGDADEKLFEESDDKEDEDADGKEVEDADEKLFEDDDSNEKLFDEEEDSSEKLFDDSDERGTLGGFGSVEEGPLSTGSSFILSSDDDDDDI
Take B1: the binding entry is on record as “binds”.
